Reference: PubChem BioAssay AID1487 (National Center for Advancing Translational Sciences (NCATS), 2009)
This is one part of the list. The main result of the screen is listed elsewhere. These columns were measured beside it and carry no call. Compounds called inactive in the main read-out are mostly missing here. Potencies come from curve fits of mixed quality, noted in brackets.

Assay: qHTS Assay for Modulators of Lamin A Splicing
Conditions: HeLa LMNA splicing GFP/RFP minigene ratio, 48 h
Outline: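 Read-out is the ratio of GFP to DsRed2 object intensity, acquired by 488 nm laser-scanning cytometry on HeLa lamin A-EGFP minigene reporter cells. Compound incubation 48 hrs at 37 °C in Opti-MEM with 2% FBS; DMSO 0.5% final.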

[1] = measured here: RFP viability control channel
[2] = measured here: GFP splicing reporter channel

Compound | AC50 [1] | AC50 [2]
COc1ccc(C2C=C(c3ccccc3)Nc3nnnn32)cc1 (configuration not stated) | 31.6 µM [rising, single point] | –
CN1CCCN(C(=O)C2CCCCC2)CC1 | 0.0501 µM [rising, full curve, poor fit] | –
COc1ccc(N2Cc3ccccc3C2=NC(=O)c2cncc(Br)c2)cc1 | 0.0501 µM [rising, full curve, poor fit] | 0.0501 µM [rising, full curve, poor fit]
CCc1noc(C)c1C(=O)Nc1nc(-c2ccc(Cl)cc2Cl)cs1 | 12.6 µM [rising, partial curve] | –
CN(C)c1ncnc2ccc(-c3cccc(NS(C)(=O)=O)c3)cc12 | 11.2 µM [falling, partial curve] | 11.2 µM [falling, partial curve]
Cc1n[nH]c(C)c1S(=O)(=O)N1CCCC(C(=O)N2CCN(c3ccc(Cl)cc3)CC2)C1 (configuration not stated) | 12.6 µM [rising, partial curve] | 2.24 µM [rising, partial curve]
O=C1C(Cc2cccc([N+](=O)[O-])c2)SC(=Nc2ccccc2)N1c1ccccc1 (configuration not stated) | 7.94 µM [rising, single point] | –
COc1ccc(-c2nc3cnc(Nc4ccccc4)nc3n(C[C@H]3CCCO3)c2=O)cc1 | 22.4 µM [falling, partial curve] | 22.4 µM [falling, partial curve]
COc1cccc(Nc2ncc3nc(C)c(=O)n(Cc4cccs4)c3n2)c1 | 11.2 µM [falling, partial curve] | 10 µM [falling, partial curve]
CCCCNC(=S)NNC(=O)c1csc(C)c1C | – | 35.5 µM [rising, single point]
O=C(Nc1nc2ccc(F)cc2s1)c1cccc(S(=O)(=O)N2CCc3ccccc32)c1 | 22.4 µM [rising, single point] | –
Cc1noc(C)c1C(=O)OCC(=O)c1cc(C)n(Cc2ccccc2Cl)c1C | 17.8 µM [rising, single point] | –
COc1ccccc1C(=O)NCC(c1ccc(N(C)C)cc1)N1CCc2ccccc21 (configuration not stated) | – | 12.6 µM [falling, single point]
CCN(CC)S(=O)(=O)c1ccc(Cl)c(NC(=O)c2ccc(C#N)cc2)c1 | 25.1 µM [rising, single point] | –
N=C(N)c1ccc(OCCCCCOc2ccc(C(=N)N)cc2)cc1 (tested in a mixture with another compound) | 25.1 µM [falling, single point] | 35.5 µM [falling, single point]
CCOc1cc(NC(=S)NCC2CCCO2)c(OCC)cc1NC(=O)c1ccc(OC)cc1 (configuration not stated) | 35.5 µM [rising, single point] | –
O=C(COc1ccc(Cl)cc1Cl)NN=C1c2ccccc2-c2ccccc21 | 2.24 µM [rising, partial curve, poor fit] | –
Cc1cc(C)c(NC(=O)CN)c(C)c1 | 22.4 µM [falling, partial curve, poor fit] | 22.4 µM [falling, partial curve, poor fit]
CC(C)=C1C2CCC1C1C(=O)N(NC(=O)COc3ccc(C(C)(C)C)cc3)C(=O)C21 (configuration not stated) | 15.8 µM [rising, single point] | –
O=C(Cn1nc(Cc2cccnc2)c2ccccc2c1=O)NCC1CCCO1 (configuration not stated) | 0.794 µM [rising, full curve, poor fit] | –
Cc1ccc(NC(=S)N/N=C/c2c(C)[nH]c3ccccc23)cc1 | 20 µM [falling, partial curve, poor fit] | 22.4 µM [falling, partial curve, poor fit]
CC1=Nc2ccccc2/C1=C/c1nc(-c2ccc(C)s2)oc1O | 15.8 µM [rising, partial curve, poor fit] | –
Cc1ccccc1S(=O)(=O)NC1OC(=O)C(Oc2ccccc2)=C1Br (configuration not stated) | – | 35.5 µM [falling, single point]
COc1ccc(NS(=O)(=O)c2cc(NC(=O)[C@@H](NC(=O)c3ccccc3)C(C)C)ccc2C)cc1 | 12.6 µM [rising, partial curve, poor fit] | –
COc1ccc(OC)c(NC(=O)c2cc3oc4ccccc4c3cc2O)c1 | 10 µM [falling, partial curve, poor fit] | 7.94 µM [falling, partial curve, poor fit]
COc1cc(/C=C2\SC(=Nc3ccccc3)N(Cc3ccco3)C2=O)ccc1OC(C)C(=O)O (configuration not stated) | 5.62 µM [falling, full curve, poor fit] | 10 µM [falling, partial curve, poor fit]
CCOC(=O)C1(Cc2cccc(OC)c2)CCCN(C(=O)c2cc(C)[nH]n2)C1 (configuration not stated) | 3.55 µM [falling, partial curve, poor fit] | 5.01 µM [falling, partial curve, poor fit]

Molecules above that contain a Cl atom:
Compound | AC50 [1] | AC50 [2]
CCc1noc(C)c1C(=O)Nc1nc(-c2ccc(Cl)cc2Cl)cs1 | 12.6 µM [rising, partial curve] | –
Cc1n[nH]c(C)c1S(=O)(=O)N1CCCC(C(=O)N2CCN(c3ccc(Cl)cc3)CC2)C1 (configuration not stated) | 12.6 µM [rising, partial curve] | 2.24 µM [rising, partial curve]
Cc1noc(C)c1C(=O)OCC(=O)c1cc(C)n(Cc2ccccc2Cl)c1C | 17.8 µM [rising, single point] | –
CCN(CC)S(=O)(=O)c1ccc(Cl)c(NC(=O)c2ccc(C#N)cc2)c1 | 25.1 µM [rising, single point] | –
O=C(COc1ccc(Cl)cc1Cl)NN=C1c2ccccc2-c2ccccc21 | 2.24 µM [rising, partial curve, poor fit] | –

Further compounds

Compound | AC50 [1] | AC50 [2]
CCC(c1nnnn1Cc1ccco1)N1CCN(c2cc(Cl)ccc2C)CC1 (configuration not stated) | – | 35.5 µM [rising, single point]
Nc1nnc(CSCc2ccc(Cl)cc2Cl)s1 | – | 0.0562 µM [rising, full curve, poor fit]
CCN(CC)c1ccc(NC(=S)NC(=O)c2cccs2)cc1 | 15.8 µM [rising, single point] | 14.1 µM [rising, single point]
CCOc1ccc(-c2c(C)nn3c(C)c(C(=O)NCCN(C)C)cnc23)cc1OCC | 0.00501 µM [falling, full curve, poor fit] | –
O=c1c(-c2ccccc2)c1-c1ccccc1 | 35.5 µM [falling, partial curve, poor fit] | 4.47 µM [rising, single point]
COc1ccc2c(c1)-c1c(sn(-c3ccccc3)c1=S)C(C)(C)N2 | 14.1 µM [rising, single point] | 14.1 µM [rising, single point]
COc1ccc(N2CCN(CC(=O)Nc3nc4c(s3)CC(C)CC4)CC2)cc1 (configuration not stated) | 15.8 µM [rising, single point] | 7.94 µM [rising, partial curve, poor fit]
Cc1nc2ccccc2n1CC(O)COCC1CC=CCC1 (configuration not stated) | 7.08 µM [rising, partial curve] | –
Cc1ccc(OCCN2CCN(c3nc(NCc4ccco4)c4ccccc4n3)CC2)cc1 | 35.5 µM [rising, single point] | 12.6 µM [rising, partial curve]
O=C(c1ccc(Br)cc1)N(Cc1ccco1)c1ccccn1 | 0.00891 µM [falling, full curve, poor fit] | –
CN1C(=O)Cc2cc(S(=O)(=O)NCc3ccccc3Cl)ccc21 | 12.6 µM [rising, single point] | 11.2 µM [rising, partial curve, poor fit]
CC(C)c1ccc(OCC(=O)N(c2ccccn2)C2CCCCC2)cc1 | 22.4 µM [rising, single point] | 14.1 µM [rising, single point]
C=C1C(C(=O)Nc2ccc(OCC)cc2)C1C(=O)Nc1ccc(OCC)cc1 (configuration not stated) | 0.00355 µM [rising, full curve, poor fit] | –
CCc1ccc(-c2nnn(Cc3nc4ccccc4s3)n2)cc1 | 22.4 µM [rising, single point] | –
CC/C(C)=N/Nc1nc2c(c(=O)[nH]c(=O)n2C)n1CCc1ccccc1 | 15.8 µM [rising, single point] | –
CCOC(=O)c1oc2ccccc2c1CN1CCN(C(=O)c2ccccc2)CC1 | 12.6 µM [rising, single point] | –
CCOc1cc(CNc2ccc(N3CCOCC3)cc2)cc(Br)c1OCC | 35.5 µM [rising, partial curve] | 5.01 µM [rising, single point]
Oc1cc(O)c2c(c1)OC(c1ccc(O)c(O)c1)C(O)C2 (configuration not stated) | 11.2 µM [rising, partial curve, poor fit] | 31.6 µM [falling, single point]
Cc1cc(C)nc(N2CCC(C(=O)Nc3ccc4c(c3)OCO4)CC2)n1 | 35.5 µM [rising, single point] | 15.8 µM [rising, single point]
CCOc1cc(S(=O)(=O)NC2CCCC2)ccc1Cl | 0.02 µM [rising, full curve, poor fit] | –
Cc1c(Cl)cccc1NC(=S)NCc1ccccc1Cl | 35.5 µM [rising, single point] | 31.6 µM [rising, single point]
Cn1nc(C(=O)Oc2cc(=O)n(C)c3ccccc23)c2ccccc2c1=O | – | 0.316 µM [rising, full curve]
CCOc1ccccc1Oc1ncnc2c1oc1ccccc12 | 6.31 µM [falling, partial curve, poor fit] | –
COc1ccc(CCCc2nnc(SCC(=O)Nc3cc(C)c(C)cc3Br)o2)cc1 | 12.6 µM [rising, single point] | –
C=C1C(=O)OC2C1CC/C(C)=C/CCC1(C)OC21 (configuration not stated) | 5.01 µM [falling, full curve] | 3.16 µM [falling, full curve]
CCOc1ccccc1NCc1nnc2n1CCCCC2 | 28.2 µM [rising, single point] | 0.891 µM [rising, full curve, poor fit]
